Laboratory results from PMC10387129.

Target: T1, DIS3 ΔNLS D146N+D487N-mVenus (Mus musculus) (UniProt Q9CSH3)
T1 sequence (looked up, limits assumed): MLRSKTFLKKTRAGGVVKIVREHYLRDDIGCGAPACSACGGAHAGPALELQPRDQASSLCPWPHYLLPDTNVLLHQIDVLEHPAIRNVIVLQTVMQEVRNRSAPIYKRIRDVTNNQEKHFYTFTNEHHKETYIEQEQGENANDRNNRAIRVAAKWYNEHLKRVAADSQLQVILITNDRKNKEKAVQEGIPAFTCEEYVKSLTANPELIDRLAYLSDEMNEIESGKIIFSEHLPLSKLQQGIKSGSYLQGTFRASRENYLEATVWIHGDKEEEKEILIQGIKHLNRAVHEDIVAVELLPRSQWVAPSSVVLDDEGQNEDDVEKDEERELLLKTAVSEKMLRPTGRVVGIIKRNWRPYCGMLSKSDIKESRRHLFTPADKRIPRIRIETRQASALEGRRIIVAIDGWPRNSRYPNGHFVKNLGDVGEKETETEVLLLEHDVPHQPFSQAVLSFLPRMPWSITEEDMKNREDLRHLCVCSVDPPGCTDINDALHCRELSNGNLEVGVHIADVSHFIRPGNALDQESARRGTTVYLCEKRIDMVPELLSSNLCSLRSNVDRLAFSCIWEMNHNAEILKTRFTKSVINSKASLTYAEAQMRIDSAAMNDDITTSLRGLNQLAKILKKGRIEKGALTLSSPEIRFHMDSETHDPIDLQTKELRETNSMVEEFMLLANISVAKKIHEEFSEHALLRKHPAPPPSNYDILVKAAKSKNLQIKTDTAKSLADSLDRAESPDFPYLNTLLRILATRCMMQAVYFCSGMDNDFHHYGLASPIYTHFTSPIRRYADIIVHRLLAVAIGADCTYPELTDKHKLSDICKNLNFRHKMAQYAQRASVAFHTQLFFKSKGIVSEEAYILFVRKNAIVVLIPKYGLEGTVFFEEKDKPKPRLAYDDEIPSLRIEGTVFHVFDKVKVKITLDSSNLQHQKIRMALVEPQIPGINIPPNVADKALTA
Test: EMSA
Conditions: 5 mM Mg2+, supershifted by anti-FLAG; LightShift RNA EMSA 1X binding buffer, 2.5% added glycerol, 5 mM MgCl2, RNase inhibitor, 1 ng biotin probe per 20 uL, 1 uL extract (1 mg/mL), 30 min room temperature; protein in an extract; protein details: mVenus with FLAG epitope (anti-FLAG); label: biotin (random internal Bio-11-CTP and Bio-11-UTP)

GGGGUUAUUGGAGCACUUCCGUGGGUAGUGAACUCAGCUAGCGUGGCCACACCAGCACCGGCACAGAGCCUGCAGGUCCAAGCCGUGACUCCCCAGCUCUUGUUGAAUGCCCAGGGCCAGGUGACCCUUUAGUGAGGGUUAAUU [Pou6f1 exon 8 RNA probe]
binding result: binds

Construct, isoform or probe ends are uncertain for at least one entry. Where cells or extracts were used, other partners may take part. Where a protein sequence is shown, tags need not be part of it.
